Assay results: the supplement of paper PMC10849652
This is one part of the list.

Chains of the proteins cited; added tags and fusions are not shown. Lines headed by an entry give the natural chain unless they say otherwise; changes in a name come on top.
UniProt P41134: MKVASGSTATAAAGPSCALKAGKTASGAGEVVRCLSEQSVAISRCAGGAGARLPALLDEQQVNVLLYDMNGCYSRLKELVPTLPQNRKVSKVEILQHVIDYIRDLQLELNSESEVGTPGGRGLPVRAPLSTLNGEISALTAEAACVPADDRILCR
UniProt Q9P2D0: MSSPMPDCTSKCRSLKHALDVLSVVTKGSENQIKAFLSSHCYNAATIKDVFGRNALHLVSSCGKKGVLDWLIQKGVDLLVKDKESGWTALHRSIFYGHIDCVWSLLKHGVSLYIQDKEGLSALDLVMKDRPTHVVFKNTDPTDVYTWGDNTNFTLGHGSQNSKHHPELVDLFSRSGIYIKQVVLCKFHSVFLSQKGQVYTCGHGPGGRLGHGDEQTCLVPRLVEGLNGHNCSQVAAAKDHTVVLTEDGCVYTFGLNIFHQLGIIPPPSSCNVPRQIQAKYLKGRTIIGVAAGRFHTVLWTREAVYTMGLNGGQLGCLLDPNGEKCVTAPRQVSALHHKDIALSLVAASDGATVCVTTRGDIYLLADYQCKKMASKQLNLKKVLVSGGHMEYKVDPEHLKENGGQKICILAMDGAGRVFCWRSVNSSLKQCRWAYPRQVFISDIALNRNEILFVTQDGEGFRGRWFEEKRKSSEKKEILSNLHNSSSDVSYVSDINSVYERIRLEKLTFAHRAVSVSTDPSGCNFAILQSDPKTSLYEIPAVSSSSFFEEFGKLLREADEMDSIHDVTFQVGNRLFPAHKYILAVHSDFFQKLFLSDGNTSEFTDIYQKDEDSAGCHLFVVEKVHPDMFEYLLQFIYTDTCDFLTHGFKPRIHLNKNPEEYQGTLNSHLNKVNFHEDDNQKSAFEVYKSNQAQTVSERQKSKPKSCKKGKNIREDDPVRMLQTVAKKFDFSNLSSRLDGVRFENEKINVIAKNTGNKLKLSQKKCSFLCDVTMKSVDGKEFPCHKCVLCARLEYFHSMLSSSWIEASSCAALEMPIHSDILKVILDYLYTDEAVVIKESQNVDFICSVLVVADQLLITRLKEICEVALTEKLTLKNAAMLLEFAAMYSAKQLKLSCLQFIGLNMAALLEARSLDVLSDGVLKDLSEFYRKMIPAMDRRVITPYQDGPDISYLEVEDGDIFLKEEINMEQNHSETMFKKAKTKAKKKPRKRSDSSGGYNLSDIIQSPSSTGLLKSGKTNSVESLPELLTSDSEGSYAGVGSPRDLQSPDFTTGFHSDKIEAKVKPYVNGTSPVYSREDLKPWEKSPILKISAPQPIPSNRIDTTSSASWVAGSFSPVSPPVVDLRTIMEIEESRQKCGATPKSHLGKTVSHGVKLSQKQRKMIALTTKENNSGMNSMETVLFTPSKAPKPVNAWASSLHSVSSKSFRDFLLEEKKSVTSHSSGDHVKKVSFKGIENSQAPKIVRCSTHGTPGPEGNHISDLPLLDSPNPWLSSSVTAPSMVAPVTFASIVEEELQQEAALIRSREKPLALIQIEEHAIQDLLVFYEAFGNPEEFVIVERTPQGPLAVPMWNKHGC
UniProt Q96EW2: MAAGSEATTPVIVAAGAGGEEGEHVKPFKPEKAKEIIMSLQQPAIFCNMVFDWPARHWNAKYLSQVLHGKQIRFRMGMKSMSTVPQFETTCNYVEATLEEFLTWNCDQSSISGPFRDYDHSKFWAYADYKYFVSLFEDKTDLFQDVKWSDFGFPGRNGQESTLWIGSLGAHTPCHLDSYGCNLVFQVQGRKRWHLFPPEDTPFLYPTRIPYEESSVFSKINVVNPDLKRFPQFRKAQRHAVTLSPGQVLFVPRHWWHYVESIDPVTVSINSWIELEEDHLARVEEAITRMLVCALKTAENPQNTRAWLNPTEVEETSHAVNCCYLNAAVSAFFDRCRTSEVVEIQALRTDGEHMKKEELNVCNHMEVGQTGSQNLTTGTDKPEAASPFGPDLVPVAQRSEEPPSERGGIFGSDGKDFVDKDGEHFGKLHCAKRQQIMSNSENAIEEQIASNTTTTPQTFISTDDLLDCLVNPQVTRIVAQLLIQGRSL
UniProt Q8N201, whole entry, looked up: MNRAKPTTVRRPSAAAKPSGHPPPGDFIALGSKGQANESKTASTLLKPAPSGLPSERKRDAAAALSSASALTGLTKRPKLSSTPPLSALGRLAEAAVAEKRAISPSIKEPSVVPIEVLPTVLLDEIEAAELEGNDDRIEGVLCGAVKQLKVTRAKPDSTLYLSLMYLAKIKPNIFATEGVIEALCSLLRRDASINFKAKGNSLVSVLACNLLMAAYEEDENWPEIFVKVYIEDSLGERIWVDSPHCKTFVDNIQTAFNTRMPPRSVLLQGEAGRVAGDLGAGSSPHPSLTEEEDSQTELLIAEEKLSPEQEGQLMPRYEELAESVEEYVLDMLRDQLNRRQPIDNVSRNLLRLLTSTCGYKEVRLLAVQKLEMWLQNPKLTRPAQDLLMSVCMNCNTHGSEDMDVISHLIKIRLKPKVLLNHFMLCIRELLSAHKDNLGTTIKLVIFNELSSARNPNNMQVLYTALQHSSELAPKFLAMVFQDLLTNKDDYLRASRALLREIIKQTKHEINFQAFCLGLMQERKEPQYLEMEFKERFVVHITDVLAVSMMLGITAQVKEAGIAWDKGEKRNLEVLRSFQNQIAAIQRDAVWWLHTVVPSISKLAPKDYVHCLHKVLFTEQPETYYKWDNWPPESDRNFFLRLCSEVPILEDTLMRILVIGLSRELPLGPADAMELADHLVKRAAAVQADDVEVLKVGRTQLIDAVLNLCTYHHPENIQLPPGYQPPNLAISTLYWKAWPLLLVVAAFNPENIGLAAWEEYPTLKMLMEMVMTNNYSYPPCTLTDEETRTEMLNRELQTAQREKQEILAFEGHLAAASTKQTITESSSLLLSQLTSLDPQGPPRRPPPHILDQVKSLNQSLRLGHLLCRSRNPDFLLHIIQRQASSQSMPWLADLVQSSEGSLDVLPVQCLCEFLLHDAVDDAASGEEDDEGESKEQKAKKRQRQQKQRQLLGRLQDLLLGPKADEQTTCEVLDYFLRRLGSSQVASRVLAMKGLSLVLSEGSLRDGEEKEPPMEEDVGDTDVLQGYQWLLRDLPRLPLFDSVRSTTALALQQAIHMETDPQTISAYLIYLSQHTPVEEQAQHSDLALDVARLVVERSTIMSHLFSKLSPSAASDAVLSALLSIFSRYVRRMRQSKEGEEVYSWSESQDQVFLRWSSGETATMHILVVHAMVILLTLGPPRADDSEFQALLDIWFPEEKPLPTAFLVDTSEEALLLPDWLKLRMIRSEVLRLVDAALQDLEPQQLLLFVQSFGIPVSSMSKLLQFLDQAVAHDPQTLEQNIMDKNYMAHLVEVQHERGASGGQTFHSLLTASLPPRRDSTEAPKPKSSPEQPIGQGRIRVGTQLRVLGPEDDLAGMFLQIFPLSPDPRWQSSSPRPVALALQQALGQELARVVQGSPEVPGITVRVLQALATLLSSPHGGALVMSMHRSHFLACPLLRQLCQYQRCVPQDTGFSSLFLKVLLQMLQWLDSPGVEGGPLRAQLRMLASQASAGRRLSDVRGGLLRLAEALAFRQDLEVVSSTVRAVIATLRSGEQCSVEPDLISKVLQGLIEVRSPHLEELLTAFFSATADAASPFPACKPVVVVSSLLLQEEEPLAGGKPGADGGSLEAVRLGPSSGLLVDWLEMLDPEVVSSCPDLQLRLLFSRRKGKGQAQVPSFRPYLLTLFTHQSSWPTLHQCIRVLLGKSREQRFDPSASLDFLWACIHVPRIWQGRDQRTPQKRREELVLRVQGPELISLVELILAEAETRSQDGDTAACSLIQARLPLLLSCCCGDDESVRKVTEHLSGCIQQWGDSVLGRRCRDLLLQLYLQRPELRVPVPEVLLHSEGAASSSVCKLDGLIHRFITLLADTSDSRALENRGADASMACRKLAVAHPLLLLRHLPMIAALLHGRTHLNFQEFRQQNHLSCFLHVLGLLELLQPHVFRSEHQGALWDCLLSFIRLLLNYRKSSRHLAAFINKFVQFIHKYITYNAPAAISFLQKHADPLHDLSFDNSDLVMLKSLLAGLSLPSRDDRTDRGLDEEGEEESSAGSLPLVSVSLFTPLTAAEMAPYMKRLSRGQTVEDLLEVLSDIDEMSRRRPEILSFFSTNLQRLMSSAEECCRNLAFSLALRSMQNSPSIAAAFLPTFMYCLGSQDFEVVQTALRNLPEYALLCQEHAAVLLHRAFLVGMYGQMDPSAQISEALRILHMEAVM
UniProt Q6UWB1, whole entry, looked up: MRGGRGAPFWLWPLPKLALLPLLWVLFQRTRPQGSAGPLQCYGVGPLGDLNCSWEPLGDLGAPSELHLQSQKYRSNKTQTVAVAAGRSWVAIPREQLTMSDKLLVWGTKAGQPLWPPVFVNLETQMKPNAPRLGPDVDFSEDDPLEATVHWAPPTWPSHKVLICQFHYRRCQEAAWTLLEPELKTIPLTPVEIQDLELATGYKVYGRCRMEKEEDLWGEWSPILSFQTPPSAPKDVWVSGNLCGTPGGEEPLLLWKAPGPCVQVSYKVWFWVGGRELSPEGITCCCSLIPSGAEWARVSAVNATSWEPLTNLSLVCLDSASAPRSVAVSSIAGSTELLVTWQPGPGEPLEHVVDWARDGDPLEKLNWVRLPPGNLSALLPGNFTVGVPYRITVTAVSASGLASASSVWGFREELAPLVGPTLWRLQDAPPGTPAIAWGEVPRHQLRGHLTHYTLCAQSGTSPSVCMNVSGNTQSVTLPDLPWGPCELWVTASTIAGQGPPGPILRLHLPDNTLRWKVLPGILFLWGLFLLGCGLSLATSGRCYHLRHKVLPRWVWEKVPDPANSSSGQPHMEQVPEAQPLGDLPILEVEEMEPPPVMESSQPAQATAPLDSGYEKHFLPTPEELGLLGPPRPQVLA
UniProt P48735: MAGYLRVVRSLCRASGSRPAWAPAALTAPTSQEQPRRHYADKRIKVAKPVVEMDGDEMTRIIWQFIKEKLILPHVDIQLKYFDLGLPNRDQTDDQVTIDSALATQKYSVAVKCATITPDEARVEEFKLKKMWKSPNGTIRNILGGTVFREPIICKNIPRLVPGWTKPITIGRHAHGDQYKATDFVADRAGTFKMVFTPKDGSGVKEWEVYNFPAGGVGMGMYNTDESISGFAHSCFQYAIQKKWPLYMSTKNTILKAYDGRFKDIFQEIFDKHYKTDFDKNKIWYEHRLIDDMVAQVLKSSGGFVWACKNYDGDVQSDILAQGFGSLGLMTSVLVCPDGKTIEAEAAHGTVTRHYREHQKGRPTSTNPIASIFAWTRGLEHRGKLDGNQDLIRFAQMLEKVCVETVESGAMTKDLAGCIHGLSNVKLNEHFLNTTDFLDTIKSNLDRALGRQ
UniProt Q9HBG6: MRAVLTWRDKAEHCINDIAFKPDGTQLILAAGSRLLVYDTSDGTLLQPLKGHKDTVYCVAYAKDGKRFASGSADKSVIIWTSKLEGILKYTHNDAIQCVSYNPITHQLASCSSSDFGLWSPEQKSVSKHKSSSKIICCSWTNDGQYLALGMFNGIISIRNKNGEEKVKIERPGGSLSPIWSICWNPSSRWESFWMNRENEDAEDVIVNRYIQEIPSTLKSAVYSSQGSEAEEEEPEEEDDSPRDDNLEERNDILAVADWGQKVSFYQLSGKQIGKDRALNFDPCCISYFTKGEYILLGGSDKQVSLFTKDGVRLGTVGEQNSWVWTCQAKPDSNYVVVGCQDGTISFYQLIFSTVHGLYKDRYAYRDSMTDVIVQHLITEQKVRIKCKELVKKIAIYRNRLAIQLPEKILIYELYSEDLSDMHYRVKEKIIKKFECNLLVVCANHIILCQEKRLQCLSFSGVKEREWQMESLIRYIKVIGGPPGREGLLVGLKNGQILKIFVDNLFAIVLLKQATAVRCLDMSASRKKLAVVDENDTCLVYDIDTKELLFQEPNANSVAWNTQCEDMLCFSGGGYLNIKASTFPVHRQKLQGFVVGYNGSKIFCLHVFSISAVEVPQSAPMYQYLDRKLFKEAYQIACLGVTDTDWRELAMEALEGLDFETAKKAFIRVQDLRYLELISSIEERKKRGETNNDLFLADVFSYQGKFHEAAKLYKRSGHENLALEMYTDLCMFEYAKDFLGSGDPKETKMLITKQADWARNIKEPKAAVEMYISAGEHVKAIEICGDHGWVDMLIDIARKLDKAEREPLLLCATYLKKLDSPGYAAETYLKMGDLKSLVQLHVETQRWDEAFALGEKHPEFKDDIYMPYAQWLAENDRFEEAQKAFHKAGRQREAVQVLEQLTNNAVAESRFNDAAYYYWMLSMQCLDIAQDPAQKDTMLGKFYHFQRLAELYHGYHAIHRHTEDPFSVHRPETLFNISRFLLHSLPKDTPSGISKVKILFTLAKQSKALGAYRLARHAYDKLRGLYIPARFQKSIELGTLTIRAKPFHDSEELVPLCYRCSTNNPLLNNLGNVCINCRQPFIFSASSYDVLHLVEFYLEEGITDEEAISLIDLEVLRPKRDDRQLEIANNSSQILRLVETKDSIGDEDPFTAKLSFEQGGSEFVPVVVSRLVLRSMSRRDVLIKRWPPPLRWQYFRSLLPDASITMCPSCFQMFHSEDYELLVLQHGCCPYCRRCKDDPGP

Compound: O=C1NC(=O)C(c2cnc3ccccn23)=C1c1cn2c3c(cc(F)cc13)CN(C(=O)N1CCCCC1)CC2
Assay: log2 fold change, soluble protein after heating vs DMSO (PISA); higher = thermal stabilisation; K562 lysate, 10 uM; active = over 0.2 and 3.5 SD of the protein, either way, in both replicates (recomputed)
Procedure, shortened: (§1)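 Quantification was by TMTpro 16plex LC-MS/MS with equalised channel sums, applied to the supernatant after 21,000xg for 90 min. Samples were crude K562 extract at 1 mg/mL protein in PBS pH 7.4 with 1 mM MgCl2, treated with 10 μM compound for 30 min, heated for 3 min across 48°C-58°C, pooled and brought to 0.5% NP-40 at 4°C. Values are log-two fold changes in thermal stability relative to solvent controls, from duplicates.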

log2 fold change, inactive:
IL18 (UniProt Q14116) 0.034, IK (UniProt Q13123) -0.038, ID1 (UniProt P41134) -0.039, IGSF3 (UniProt O75054) 0.01, IMPDH2 (UniProt H0Y4R1) 0.05, HSPB11 (UniProt Q9Y547) 0.011, IBTK (UniProt Q9P2D0) -0.015, IGBP1 (UniProt P78318) 0.007, INPP4A (UniProt Q96PE3) -0.013, IGFBP4 (UniProt P22692) 0.023, INPP5B (UniProt P32019) -0.006, HTT (UniProt P42858) 0, HYOU1 (UniProt J3QL06) -0.032, IGHA1 (UniProt P01876) 0.297, IFT57 (UniProt Q9NWB7) 0.024, IFT74 (UniProt Q96LB3) 0.062, IDH3G (UniProt P51553) 0.015, IMPAD1 (UniProt Q9NX62) 0.005, ILF3 isoform 7 (UniProt Q12906) 0.026, HSPBAP1 (UniProt Q96EW2) -0.014, ICAM2 (UniProt P13598) -0.021, INO80E (UniProt Q8NBZ0) 0.091, IGHMBP2 (UniProt P38935) 0.168, IGHG1 (UniProt P01857) 0.565, INTS1 (UniProt Q8N201) -0.034, IL27RA (UniProt Q6UWB1) -0.074, HSPA8 (UniProt E9PN89) -0.017, IGF2BP2 (UniProt Q9Y6M1) 0, ILRUN (UniProt Q9H6K1) -0.01, IMMP1L (UniProt Q96LU5) 0.022, IDH2 (UniProt P48735) -0.004, ICE2 (UniProt Q659A1) -0.008, IFT122 isoform 5 (UniProt Q9HBG6) -0.269

Compound: c1cn2cc(-c3ccc4cn[nH]c4c3)nc(Nc3ccc(N4CCOCC4)cc3)c2n1 [entospletinib]
Assay: as above
Procedure, shortened: as §1

log2 fold change, inactive:
IL18 (UniProt Q14116) -0.067, IK (UniProt Q13123) 0.009, IGSF3 (UniProt O75054) 0.006, IMPDH2 (UniProt H0Y4R1) -0.042, HSPB11 (UniProt Q9Y547) 0.002, IBTK (UniProt Q9P2D0) -0.009, IGBP1 (UniProt P78318) 0.014, INPP4A (UniProt Q96PE3) 0.006, INPP5B (UniProt P32019) 0.007, HTT (UniProt P42858) -0.042, HYOU1 (UniProt J3QL06) 0.001, IGHA1 (UniProt P01876) -0.108, IFT57 (UniProt Q9NWB7) -0.076, IFT74 (UniProt Q96LB3) 0.041, IDH3G (UniProt P51553) 0.002, IMPAD1 (UniProt Q9NX62) 0.036, ILF3 isoform 7 (UniProt Q12906) -0.005, HSPBAP1 (UniProt Q96EW2) -0.125, ICAM2 (UniProt P13598) -0.018, INO80E (UniProt Q8NBZ0) -0.17, IGHMBP2 (UniProt P38935) -0.156, INTS1 (UniProt Q8N201) 0.003, IL27RA (UniProt Q6UWB1) -0.016, HSPA8 (UniProt E9PN89) -0.024, IGF2BP2 (UniProt Q9Y6M1) 0.026, ILRUN (UniProt Q9H6K1) -0.013, IMMP1L (UniProt Q96LU5) 0.001, IDH2 (UniProt P48735) 0.05, ICE2 (UniProt Q659A1) -0.217
